Patent US8802634B2, “CD40-L Inhibitory Peptides” (Phylogica Limited, priority 2008, dated 2014)
The structures given here were assigned with low confidence; some may be wrong.

Sequences of proteins named here, by UniProt entry; tags and fusion partners are left off. Residues count along the entry.
UniProt P29965, 113-261 limits assumed: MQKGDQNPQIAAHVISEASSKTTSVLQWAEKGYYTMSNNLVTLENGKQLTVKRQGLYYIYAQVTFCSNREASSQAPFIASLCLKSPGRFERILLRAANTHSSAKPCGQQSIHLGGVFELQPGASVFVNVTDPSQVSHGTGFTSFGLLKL

Target: CD40L/CD40-Fc (Homo sapiens, UniProt P29965)
Assay: Chemiluminescent proximity assay (Alphascreen) of CD40L-CD40 interaction
Conditions: read-out: EC50(PEGylated) CD40L/CD40-Fc/BAF617; PEGylated chiral (retro-inverted) analog

CC[C@@H](C)[C@@H](NC(=O)[C@@H](Cc1c[nH]c2ccccc12)NC(=O)[C@@H](CC(N)=O)NC(=O)[C@@H](Cc1ccccc1)NC(=O)[C@@H](Cc1ccccc1)NC(=O)[C@@H](CO)NC(=O)[C@H](NC(=O)[C@H](N)Cc1ccc(O)cc1)C(C)C)C(=O)N[C@H](CO)C(=O)N[C@H](Cc1ccccc1)C(=O)N[C@@H](C(=O)N[C@H](CC(N)=O)C(=O)N[C@H](CCCCN)C(=O)N[C@@H](C(=O)N[C@H](CO)C(=O)N[C@H](Cc1ccccc1)C(=O)N1CCC[C@@H]1C(=O)N[C@H](Cc1cnc[nH]1)C(=O)O)[C@H](C)CC)C(C)C
EC50: 20 nM
